Measurements from PubChem BioAssay AID540256 (National Center for Advancing Translational Sciences (NCATS), 2011).
Screen size: about 300,000 compounds; about 3,700 (1.2%) were called active. This list was built around the results that the source calls inconclusive (neither active nor inactive); the mix of calls is not that of the screen. Calls come from the whole dose curve; tested in HEK293 cells. A potency beside an inconclusive call is a rough fit, not a confirmed value.

Experiment: qHTS for Inhibitors of binding or entry into cells for Lassa Virus; note: nearly all actives have a fitted effect of over 50% in size
Settings: Lassa virus pseudotype entry inhibition, cell reporter; activity change, negative = inhibition: at 37.9 µM (top of the series) unless noted
% is set by controls: 0 for no effect and ±100 for the full control effect; potency is the fitted concentration of half-maximal effect.

Compound	activity change, negative = inhibition	Potency
Cc1ccccc1OCC(=O)Nc1cc(Cl)ccc1Oc1ccccc1	inactive: -2.43%	
O=C(Nc1nc2c(Cl)cccc2s1)c1ccc(S(=O)(=O)N2CCc3ccccc32)cc1		inconclusive: 10 µM [inhibitor, partial curve, poor fit]
COc1cccc(CN(C)C(=O)Cc2c[nH]c3ccccc23)c1OC		inconclusive: 0.355 µM [inhibitor, partial curve, poor fit]
CC1=C(C(=O)OCC2CCCO2)C(c2ccccc2)C2=C(CCCC2=O)N1 (configuration not stated)	inactive: 19% [at 46.1 µM]	
CCNC(=O)c1ccc(NS(=O)(=O)c2ccccc2)cc1		inconclusive: 0.0052 µM [inhibitor, full curve, poor fit]
CCOP(=O)(OCC)c1nc(/C=C/c2ccccc2)oc1NCc1ccccc1	inactive: -0.653%	
N#CC1=C(SCc2ccc(C#N)cc2)N=C(N)C(c2nc(-c3ccccc3)cs2)C12CCCCC2 (configuration not stated)		inconclusive: 22.4 µM [inhibitor, single point]
Cc1ccc(C)c(CN2CCC(CNC(=O)Nc3cccc(Cl)c3C)CC2)c1		inconclusive: 35.5 µM [inhibitor, single point]
Cc1nc2ncnn2c(N2CCCC(C(=O)Nc3ccccc3Br)C2)c1C (configuration not stated)		inconclusive: 22.4 µM [inhibitor, partial curve, poor fit]
CCOc1ccc(C(C(=O)NCC2CCCO2)N(Cc2cccs2)C(=O)c2snc(C(N)=O)c2N)cc1 (configuration not stated)		inconclusive: 17.8 µM [inhibitor, partial curve, poor fit]
CCOC(=O)c1ccc(NC(=O)CN(Cc2ccc(C)cc2)S(=O)(=O)c2ccc(C)cc2)cc1		inconclusive: 35.5 µM [inhibitor, single point]
O=C(Nc1ccc(N2CCN(c3ncccc3C(F)(F)F)CC2)nc1)c1cccs1		active: 11.2 µM
COc1ccc(-n2c(SCc3nc(-c4ccc(C)cc4)no3)nnc2-c2ccccc2)cc1		inconclusive: 31.6 µM [activator, single point]
CCOc1ccc2[nH]c(=O)c(C(c3nnnn3CC3CCCO3)N3CCc4ccccc4C3)cc2c1 (configuration not stated)	inactive: -2.76%	
O=[N+]([O-])c1cc(S(=O)(=O)N2CCOCC2)ccc1N1CCCC1		inconclusive: 5.01 µM [inhibitor, partial curve, poor fit]
COC(=O)c1ccc(NC(=O)Nc2ccccc2C)cc1	inactive: 22.1%	
Cc1ccc(C)c(NC(=O)COC(=O)c2cccc3c2C(=O)c2ccccc2C3=O)c1		inconclusive: 22.4 µM [inhibitor, partial curve, poor fit]
C(=N\N1CCN(c2ccccc2)CC1)/c1ccccc1	inactive: 1.56%	
O=C(Nc1ccc(Oc2ccccc2)cc1)c1ccc(F)c(S(=O)(=O)N2CCN(c3cccc(Cl)c3)CC2)c1		inconclusive: 3.55 µM [inhibitor, single point]
COc1ccc(CNc2nc(-c3ccccc3)nn2C(=O)c2cccs2)cc1		inconclusive: 6.51 µM [activator, single point]
Cc1ccc(C(=O)NCC(=O)N(C)Cc2cccc(F)c2)s1	inconclusive: 20.2% [activator] [at 46.1 µM]	

Of the compounds above, these contain fluorine.
Compound	activity change, negative = inhibition	Potency
O=C(Nc1ccc(N2CCN(c3ncccc3C(F)(F)F)CC2)nc1)c1cccs1		active: 11.2 µM
O=C(Nc1ccc(Oc2ccccc2)cc1)c1ccc(F)c(S(=O)(=O)N2CCN(c3cccc(Cl)c3)CC2)c1		inconclusive: 3.55 µM [inhibitor, single point]
Cc1ccc(C(=O)NCC(=O)N(C)Cc2cccc(F)c2)s1	inconclusive: 20.2% [activator] [at 46.1 µM]	

Following part:

Compound	activity change, negative = inhibition	Potency
CC(=O)c1cccc(N(CC(=O)NC2CCCCC2)C(=O)Cn2nnc(-c3ccccc3)n2)c1		inconclusive: 35.5 µM [activator, single point]
O=C(N/N=C/c1ccc(OC(=O)c2cccs2)cc1)c1ccc(F)cc1	inactive: 5.54%	
CC1CCCCN1C(=O)COC(=O)c1cc([N+](=O)[O-])ccc1N (configuration not stated)	inactive: -5.84%	
O=C(CCSCc1ccc(Cl)cc1)NCCc1ccccc1		inconclusive: 35.5 µM [activator, single point]
Cc1ccc(N(C(C)C(=O)NCc2ccncc2)S(C)(=O)=O)cc1C (configuration not stated)	inactive: 3.04%	
CSc1ccccc1OCc1cc(C(=O)N2CCCC(C)C2)no1 (configuration not stated)		inconclusive: 35.5 µM [inhibitor, single point]
O=C(Cc1cccs1)NCCS(=O)(=O)N1CCN(c2cccc(Cl)c2)CC1		inconclusive: 35.5 µM [inhibitor, single point]
CN(C)CCCN(C(=O)c1ccc(C(=O)c2ccccc2)cc1)c1nc2cc3c(cc2s1)OCO3		active: 11.2 µM
Cc1c(Cl)cccc1N1CCn2c1nc1c2c(=O)n(CC(=O)O)c(=O)n1C		inconclusive: 14.1 µM [activator, single point]
CN(C)S(=O)(=O)c1ccc(C(=O)NCCSc2c(-c3ccc(Br)cc3)[nH]c3ccccc23)cc1		inconclusive: 35.5 µM [inhibitor, single point]
O=C(/C=C/c1ccc(Cl)cc1)N(Cc1ccccc1)c1ccccn1		inconclusive: 20 µM [inhibitor, single point]
COc1ccccc1NC(=O)c1nn(C)c2c1CS(=O)(=O)c1ccccc1-2	inactive: -10.9% [at 46.1 µM]	
Cc1ccc(-c2cc(C(F)(F)F)n3nc(-c4cccc(Br)c4)cc3n2)cc1	inactive: 16.9% [at 46.1 µM]	
CCc1ccc(C2=NN(S(C)(=O)=O)C(c3cccs3)C2)cc1 (configuration not stated)		inconclusive: 18.3 µM [inhibitor, single point]
COc1cccc2sc(NC(=O)c3ccc(S(=O)(=O)N4CCOCC4)cc3)nc12		inconclusive: 0.164 µM [inhibitor, full curve, poor fit]
O=C(Cn1nc(Cc2ccncc2)c2ccccc2c1=O)Nc1cccc(C(F)(F)F)c1	inactive: -0.623% [at 46.1 µM]	
Cc1ccc(CSCCC(=O)N2CCN(c3ccc(F)cc3)CC2)cc1		inconclusive: 15.8 µM [inhibitor, single point]
O=C(NCc1ccccc1)C(c1ccc(O)cc1)N(C(=O)c1cnccn1)c1ccccc1 (configuration not stated)		inconclusive: 10 µM [inhibitor, partial curve, poor fit]
CC(C)C(=O)NC(Nc1ccccc1F)C(Cl)(Cl)Cl (configuration not stated)		inconclusive: 2.06 µM [activator, partial curve, poor fit]
CCCN(C(=O)COC(=O)COc1c(C)cccc1C)c1c(N)n(Cc2ccccc2)c(=O)[nH]c1=O	inactive: -12%	
C=CCc1ccccc1Oc1cc(OC)nc(N)n1		inconclusive: 1 µM [inhibitor, partial curve, poor fit]
